PubChem BioAssay AID1671195 – Yale University – 2021

Assay: 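Knockdowns that increase or decrease uptake of fluorescent LDL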 (primary screen)
System: human Huh7 hepatoma cells
Reagent: siRNA pool against human genes, 18 nM
Time to read-out: about 2 to 2.5 days of knockdown, then 8 h LDL uptake
Treatment: DiI-labelled LDL at 30 µg/ml for 8 h, in lipoprotein-deficient serum medium
Read-out: 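Fluorescent LDL signal imaged in cells, scaled to the plate median, robust z-score for each replicate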
Reading the numbers: robust z-score: higher = more LDL uptake after knockdown
Rule for the call: 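Active when two or more replicates show a robust z-score above 2 or below -2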
The whole screen tested about 22,000 reagents; shown is an unselected part. About 1,510 of them (6.9%) were called active. 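Active includes knockdowns raising or lowering LDL uptake; positive z-scores mean more uptake, negative mean less.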 The numbers tell different reagents against one gene apart. Reagent sequences are not shown.

gene	reagent no.	robust z-score, replicate 1	robust z-score, replicate 2	robust z-score, replicate 3	Outcome
LOC100131554 (GeneID 100131554)	1	-1.34	-1.98	-1.44	inactive
WDR83 (GeneID 84292)	1	0.712	0.524	0.875	inactive
C10orf126 (GeneID 283080)	1	1.41	0.433	0.394	inactive
MCEE (GeneID 84693)	1	-0.941	-1.41	-1.38	inactive
SPO11 (GeneID 23626)	1	-1.65	-1.88	-1.52	inactive
LOC343705 (retired record) (GeneID 343705)	1	0.351	0.556	0.445	inactive
NOL12 (GeneID 79159)	1	-0.578	-0.128	-0.137	inactive
ADAMTS7 (GeneID 11173)	1	0.23	-0.281	-0.311	inactive
OR2M7 (GeneID 391196)	1	0.211	1.12	1.27	inactive
PROB1 (GeneID 389333)	1	-0.935	-0.537	-0.886	inactive
SOX11 (GeneID 6664)	1	-0.794	-0.445	-0.243	inactive
LOC441851 (retired record) (GeneID 441851)	1	-0.428	-0.0775	-0.242	inactive
PIGX (GeneID 54965)	1	-0.768	0.478	-0.0556	inactive
LOC390777 (retired record) (GeneID 390777)	1	0.757	0.519	0.339	inactive
EYS (GeneID 346007)	1	-0.109	0.0457	-0.309	inactive
EYS (GeneID 346007)	2	-0.169	-0.969	-0.788	inactive
ZFAND1 (GeneID 79752)	1	2.73	2.59	2.15	active
LOC440734 (retired record) (GeneID 440734)	1	-0.371	0.0909	-0.702	inactive
MT1X (GeneID 4501)	1	-0.048	-1.3	-0.608	inactive
TNFRSF13C (GeneID 115650)	1	-0.864	0.846	0.336	inactive
MRE11 (GeneID 4361)	1	0.352	0.599	0.077	inactive
HLA-DRB1 (GeneID 3123)	1	1.28	-0.633	0.751	inactive
OR5K4 (GeneID 403278)	1	0.122	0.209	-0.105	inactive
PKD1 (GeneID 5310)	1	-0.12	0.606	-0.174	inactive
LOC400733 (retired record) (GeneID 400733)	1	-1.42	-1.38	-1.49	inactive
ZNF658 (GeneID 26149)	1	-2.14	-2.09	-1.41	active
LOC389707 (retired record) (GeneID 389707)	1	-0.41	-0.276	-0.404	inactive
BUB3 (GeneID 9184)	1	-0.481	-0.528	-0.789	inactive
ASAP3 (GeneID 55616)	1	0.662	1.83	2.36	inactive
ANKRD26 (GeneID 22852)	1	0.328	-0.5	0.525	inactive
BICRAL (GeneID 23506)	1	-0.233	1.14	0.0795	inactive
RLBP1 (GeneID 6017)	1	2.96	3.4	3.64	active
LINC01116 (GeneID 375295)	1	-0.861	-0.843	-0.866	inactive
LOC137829 (retired record) (GeneID 137829)	1	-1.86	-1.12	-1.41	inactive
BRINP3 (GeneID 339479)	1	-0.984	-1.21	-1.12	inactive
PCDHGA9 (GeneID 56107)	1	-0.0378	0.582	0.781	inactive
LOC390773 (retired record) (GeneID 390773)	1	1.52	1.03	0.667	inactive
MPPE1 (GeneID 65258)	1	0.0478	0.238	0.873	inactive
ZNF846 (GeneID 162993)	1	-0.416	-1.19	-0.272	inactive
SDHA (GeneID 6389)	1	1.01	1.06	0.681	inactive
KRTAP2-4 (GeneID 85294)	1	2.37	2.94	2.34	active
NME9 (GeneID 347736)	1	-0.0517	-0.526	0.267	inactive
NIFK (GeneID 84365)	1	1.15	1.05	1.16	inactive
ALPG (GeneID 251)	1	-1.46	-1.48	-1.58	inactive
LOC401915 (retired record) (GeneID 401915)	1	-0.607	-0.361	0.234	inactive
THOC5 (GeneID 8563)	1	2.76	0.93	1.57	inactive

10 of these entries, reformatted:
gene | reagent no. | robust z-score, replicate 1 | robust z-score, replicate 2 | robust z-score, replicate 3 | Outcome
HLA-DRB1 (GeneID 3123) | 1 | 1.28 | -0.633 | 0.751 | inactive
OR5K4 (GeneID 403278) | 1 | 0.122 | 0.209 | -0.105 | inactive
PKD1 (GeneID 5310) | 1 | -0.12 | 0.606 | -0.174 | inactive
LOC400733 (retired record) (GeneID 400733) | 1 | -1.42 | -1.38 | -1.49 | inactive
ZNF658 (GeneID 26149) | 1 | -2.14 | -2.09 | -1.41 | active
LOC389707 (retired record) (GeneID 389707) | 1 | -0.41 | -0.276 | -0.404 | inactive
BUB3 (GeneID 9184) | 1 | -0.481 | -0.528 | -0.789 | inactive
ASAP3 (GeneID 55616) | 1 | 0.662 | 1.83 | 2.36 | inactive
ANKRD26 (GeneID 22852) | 1 | 0.328 | -0.5 | 0.525 | inactive
BICRAL (GeneID 23506) | 1 | -0.233 | 1.14 | 0.0795 | inactive

Further reagents follow.
gene	reagent no.	robust z-score, replicate 1	robust z-score, replicate 2	robust z-score, replicate 3	Outcome
NRIP3 (GeneID 56675)	1	-0.991	-0.229	0.0852	inactive
CCDC42 (GeneID 146849)	1	-1.28	-0.7	-1.13	inactive
LOC389237 (retired record) (GeneID 389237)	1	0.928	0.44	0.908	inactive
CD8A (GeneID 925)	1	0.68	0.929	0.239	inactive
LOC440339 (retired record) (GeneID 440339)	1	0.776	2.51	1.15	inactive
REXO1 (GeneID 57455)	1	-1.21	-1.21	-0.714	inactive
ABI3 (GeneID 51225)	1	0.753	0.619	0.699	inactive
APOO (GeneID 79135)	1	-0.895	-0.531	-1.2	inactive
LOC401188 (retired record) (GeneID 401188)	1	0.49	-0.132	-0.228	inactive
CARNS1 (GeneID 57571)	1	-0.839	-0.306	1.53	inactive
DDX53 (GeneID 168400)	1	-0.433	-0.236	-0.545	inactive
ZNF346 (GeneID 23567)	1	-1.33	-1.26	-1.01	inactive
MTMR10 (GeneID 54893)	1	-0.875	-0.591	0.153	inactive
TEDC2-AS1 (GeneID 729652)	1	-1.19	-1	-0.737	inactive
LOC391429 (retired record) (GeneID 391429)	1	1.17	-0.593	-0.27	inactive
CEBPB-AS1 (GeneID 101927559)	1	0.216	0.183	0.131	inactive
KIRREL2 (GeneID 84063)	1	-0.133	-0.0669	0.313	inactive
CEP95 (GeneID 90799)	1	-0.29	-0.0869	0.389	inactive
FBN1 (GeneID 2200)	1	1.15	1.49	3.88	inactive
PGK1 (GeneID 5230)	1	-0.583	-0.031	-0.873	inactive
GFRA4 (GeneID 64096)	1	-1.12	-0.485	0.744	inactive
TTLL3 (GeneID 26140)	1	-0.782	1.11	1.38	inactive
CSNK1G2-AS1 (GeneID 255193)	1	-1.01	-0.929	-0.817	inactive
KCNK12 (GeneID 56660)	1	0.377	0.976	1.02	inactive
SPRR2E (GeneID 6704)	1	1.2	1.87	1.91	inactive
FOXN4 (GeneID 121643)	1	3.16	2.25	3.1	active
FAM76A (GeneID 199870)	1	-0.675	-1.34	-1.12	inactive
SSRP1 (GeneID 6749)	1	2.04	2.64	1.66	active
CASS4 (GeneID 57091)	1	0.708	2.35	1.94	inactive
NKAIN3 (GeneID 286183)	1	2.04	1.64	1.78	inactive
KLRD1 (GeneID 3824)	1	1.65	1.83	2.12	inactive
NUAK1 (GeneID 9891)	1	-0.411	-0.886	-0.467	inactive
WDR17 (GeneID 116966)	1	0.64	-0.318	0.522	inactive
ACTR5 (GeneID 79913)	1	3.49	1.8	2.76	active
IQSEC3P3 (GeneID 728056)	1	-0.355	-0.356	-0.212	inactive
LOC402279 (GeneID 402279)	1	0.748	0.34	0.511	inactive
ZNF696 (GeneID 79943)	1	-1.4	-0.766	-0.881	inactive
TMEM236 (GeneID 653567)	1	-0.295	-0.391	-0.00295	inactive
PHETA1 (GeneID 144717)	1	-1.27	-1.95	-0.914	inactive
SCAF4 (GeneID 57466)	1	1.22	0.865	0.661	inactive
ACKR1 (GeneID 2532)	1	0.228	0.591	0.494	inactive
